From ChEMBL document CHEMBL3988442, “University of Dundee, Small-Polar-MMV Screening Library” (2021).

Mtb heat-shock: 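Assay on Mycobacterium tuberculosis, filed only as a heat shock assay from Cornell; the read-out is not stated. The concentration is filed as 10 mM, unlikely as a test dose, so the dose is not known. Direction is inferred from retests: higher values go with stronger inhibition. About 69,000 compounds were tested under these conditions; 1.4% (about 930) showed 50% or more at least once.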
Mtb growth Cornell: 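Whole-cell assay for inhibitors of Mycobacterium tuberculosis growth, labelled Cornell in the record; the read-out is not stated. The concentration is filed as 10 mM, unlikely as a test dose, so the dose is not known. Higher means stronger inhibition (inferred from two other growth screens of the library). Of about 53,000 compounds tested this way, about 900 (1.7%) reached 50% or more in at least one test.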

Values are the deposited “Percent Effect”, in %.
The record does not define 0% and 100%; most values in the screen are far below 50% and negative numbers occur (in some assays of this library far below -100).
Compounds were drawn at random from those tested, without regard to their results.

* CC(C1CC1)N(CC(=O)NCC(F)(F)F)C1CC1 (centres undefined) | Mtb heat-shock: -1.558%; Mtb growth Cornell: -19.19%
* O=C(NC1CC1)C(c1ccccc1)N1CCn2c(nnc2C2CC2)C1 (centres undefined) | Mtb heat-shock: 15.34%
* CN1CCc2c(C#N)c(NCc3ccco3)n3cnnc3c2C1 | Mtb heat-shock: -30.4%; Mtb growth Cornell: -2.486%
* CCc1nnc2n1CCN(Cc1csc(-c3ncccn3)n1)C2 | Mtb heat-shock: -0.9681%; Mtb growth Cornell: -62.72%
* O=C(O)C(F)(F)F.O=C(O)C(F)(F)F.c1cc(CN2CCc3ncnc(C4CCOC4)c3CC2)ccn1 (centres undefined) | Mtb heat-shock: -42.35%; Mtb growth Cornell: 13.41%
* Cc1cc(C)c2c(N3CCC(C(=O)N4CCCC4)CC3)ncnc2n1 | Mtb heat-shock: 1.715%; Mtb growth Cornell: 12.61%
* O=C(O)C(F)(F)F.O=C(O)C(F)(F)F.[H][C@@]12CCCO[C@]1([H])[C@H](N(C)Cc1cccnc1)CN2C(=O)c1ccoc1 | Mtb heat-shock: 6.342%; Mtb growth Cornell: 45.16%
* CN(Cc1ccc(C#N)cc1)c1ncc(C(N)=O)cc1Cl | Mtb heat-shock: -14.32%
* OC1(Cn2ccc3ncccc32)CCN(Cc2cc(F)cc(F)c2)CC1 | Mtb heat-shock: -14.17%; Mtb growth Cornell: 1.58%
* O=C(O)C(F)(F)F.[H][C@@]12CCNC[C@]1(C(=O)NCc1cnc(C)cn1)CCO2 | Mtb heat-shock: 23.9%; Mtb growth Cornell: -6.049%
* O=C(O)CN1CCc2onc(C(c3ccccc3)c3ccccc3)c2C1 | Mtb heat-shock: -20.3%
* COc1cc(-c2cnnc(NCC3CC3)n2)cc(OC)c1OC | Mtb heat-shock: -20.25%; Mtb growth Cornell: -11.87%
* OCc1ccc(OCC(F)(F)F)cc1 | Mtb heat-shock: 12.75%; Mtb growth Cornell: -7.777%
* COc1ccc(C(C)(C)C(=O)NCc2n[nH]c(=O)[nH]2)cc1 | Mtb heat-shock: -13.06%
* Cc1ncccc1Oc1cncc(C2CCCN2Cc2cncn2C)n1 (centres undefined) | Mtb heat-shock: -0.2367%; Mtb growth Cornell: 4.073%
* CCS(=O)(=O)N1CCC2(CC1)CN(c1cncnc1)C(=O)CO2 | Mtb heat-shock: -9.41%; Mtb growth Cornell: 15.96%
* O=C(NCCc1nnc2n1CCC2)NC1(c2cccc(F)c2)CC1 | Mtb heat-shock: 11.51%; Mtb growth Cornell: 1.238%
* COC1(CNC(=O)NCc2ccccc2)CCSC1 (centres undefined) | Mtb heat-shock: -42.73%; Mtb growth Cornell: 3.223%
* COc1ccc(Cl)cc1NC(=O)N(C)CC(O)COCCOC(C)C (centres undefined) | Mtb heat-shock: -32.34%
* [H][C@@]12CCCO[C@]1([H])[C@H](NC(=O)c1cscn1)CN2Cc1ccco1 | Mtb heat-shock: 2.356%; Mtb growth Cornell: 2.306%
* Cc1cc(C(=O)N[C@H](C)c2onc(C)c2C(=O)O)c(C)o1.Cl | Mtb heat-shock: 6.289%; Mtb growth Cornell: 7.68%

Repeated from the top, 3 entries:

* CC(C1CC1)N(CC(=O)NCC(F)(F)F)C1CC1 (centres undefined) | Mtb heat-shock: -1.558%; Mtb growth Cornell: -19.19%
* O=C(NC1CC1)C(c1ccccc1)N1CCn2c(nnc2C2CC2)C1 (centres undefined) | Mtb heat-shock: 15.34%
* CN1CCc2c(C#N)c(NCc3ccco3)n3cnnc3c2C1 | Mtb heat-shock: -30.4%; Mtb growth Cornell: -2.486%